Values from PubChem BioAssay AID504764 (Drosophila RNAi Screening Center, 2011)
Assay: 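Knock-downs that raise or lower a Notch target reporter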 (primary screen). Cell system: Drosophila Kc167 cells. Knock-down reagent: long dsRNA against Drosophila genes. Duration: about 5 days (4 days dsRNA, then 24 h after transfection). Treatment: transfection of constitutively active membrane-tethered Notch lacking the extracellular domain, read 24 h later. Detection: 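Light from a Notch-responsive E(spl)m3 luciferase reporter under active Notch, with control-promoter and no-Notch reporter wells to normalise; raw counts from paired wells a and b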. Scale: induced reporter light, run 1, well a and induced reporter light, run 1, well b: higher = more light from the Notch target reporter with active Notch; control promoter light, run 1, well a and control promoter light, run 1, well b: higher = more light from the viral control promoter (cell number, transfection, viability); uninduced reporter light, run 1, well a: higher = more light from the Notch target reporter without active Notch. Active means: 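Wells with low control signal or poorly matching duplicates excluded; duplicates averaged; per source plate, z beyond ±2 for induced/control log2 ratio or beyond ±1.8 for induced/uninduced marks a hit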. Meaning of the calls: active = modifier hit (raised or lowered Notch signal); inactive = not a hit.
The deposit covers about 22,000 reagents; shown is an unselected part of those with a known target gene and a result. In the full data, 403 (1.9%) were called active. 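Unnormalised raw counts per well; ratio z-scores behind the hit calls and whether each hit raises or lowers signal are not deposited.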 The record does not give: the amount of reagent.

target	amplicon	induced reporter light, run 1, well a	induced reporter light, run 1, well b	control promoter light, run 1, well a	control promoter light, run 1, well b	uninduced reporter light, run 1, well a	Outcome
Sbat	DRSC00160	96495	96865	1.63e5	1.61e5	8890	inactive
CG3588	DRSC18473	95110	1.15e5	1.43e5	1.64e5	8140	inactive
CG7423	DRSC20044	85270	96430	79730	1.32e5	8270	inactive
CG15747	DRSC19713	28160	26395	28380	25045	2665	inactive
Hmu	DRSC16705	91720	1.19e5	1.97e5	1.54e5	8615	inactive
alph	DRSC15398	1.79e5	2.24e5	2.80e5	2.57e5	12130	inactive
CG13791 (retired record)	DRSC02295	1.61e5	1.44e5	1.86e5	2.05e5	9800	inactive
PRL-1	DRSC03393	77495	94925	63990	73060	5845	inactive
Galphai	DRSC11168	1.06e5	81895	77070	15795	10470	inactive
CG14362	DRSC14824	2.62e5	2.35e5	2.30e5	2.14e5	19510	inactive
CG5623	DRSC15848	2.28e5	2.81e5	2.10e5	2.31e5	17260	inactive
CG11241	DRSC11641	1.38e5	1.38e5	86565	95635	8245	inactive
Sclp	DRSC19851	2.46e5	2.13e5	2.94e5	3.30e5	16205	inactive
CG4278	DRSC02741	2.17e5	2.24e5	1.86e5	2.30e5	18980	inactive
Mcm10	DRSC03162	1.77e5	1.81e5	1.26e5	1.34e5	15515	inactive
Cyp6t2Psi	DRSC01840	81815	1.04e5	86840	95045	9682	inactive
spo	DRSC11127	2.65e5	2.27e5	2.75e5	1.92e5	11260	inactive
Panx	DRSC04563	46365	40500	46985	69395	2605	inactive
P5cr-2	DRSC15889	2.42e5	2.04e5	2.16e5	1.95e5	17005	inactive
stj	DRSC06124	1.56e5	1.52e5	1.65e5	1.59e5	14145	inactive
SREBP	DRSC11182	40115	38265	32115	28195	2895	inactive
Ir92a	DRSC15111	1.93e5	1.62e5	2.29e5	2.01e5	13045	inactive
Tsp42Ed	DRSC05940	2.40e5	1.83e5	2.93e5	2.91e5	15270	inactive
Zif	DRSC12514	1.23e5	1.30e5	1.53e5	1.66e5	15235	inactive
TBC1D5	DRSC16421	1.41e5	1.32e5	93910	93585	10990	inactive
Cpr78Ca	DRSC11651	1.25e5	1.06e5	1.24e5	1.16e5	8405	inactive
UQCR-14L	DRSC15288	1.28e5	1.18e5	1.56e5	1.62e5	11280	inactive
UQCR-14L	DRSC22425						inactive
CG18190	DRSC06714	1.65e5	1.24e5	1.45e5	1.60e5	10265	inactive
CG7294	DRSC03041	71725	1.00e5	68850	1.00e5	14775	inactive
PGRP-SB1	DRSC11090	1.49e5	1.27e5	2.27e5	1.82e5	7375	inactive
PQBP1	DRSC14393	1.39e5	1.47e5	1.75e5	1.90e5	12945	inactive
Burs	DRSC14595	1.30e5	1.31e5	1.63e5	1.67e5	8130	inactive
CG12684	DRSC17875	1.44e5	1.39e5	2.49e5	2.49e5	12115	inactive
